Test results from PubChem BioAssay AID504467 (National Center for Advancing Translational Sciences (NCATS), 2011).
The whole screen tested about 330,000 compounds, of which about 7,700 (2.3%) were called active. The shares of active, inactive and inconclusive entries below differ from those in the screen. The call rests on the fitted dose curve; in most records, active means well fitted inhibition curve with a large enough effect; inconclusive means small, poorly fitted or top-dose-only effect, or effect the other way; inactive means flat fitted curve, though single readings scatter. Where the call is inconclusive, the potency comes from a doubtful curve fit.

Assay: qHTS screen for small molecules that inhibit ELG1-dependent DNA repair in human embryonic kidney (HEK293T) cells expressing luciferase-tagged ELG1; further: nearly all actives have a fitted effect of over 55% in size
Conditions: HEK293T ELG1-luciferase reporter, luminescence, 16 h, DNA damage induced by 5-fluorouridine; series mostly up to 46.1 µM
Summary of the method: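 Cells (2,000 per well) received 5-fluorouridine plus test compound or DMSO and were incubated 16 hr at 37 °C, 5% CO2. Luciferase activity was read by luminescence 30 min after ONE-Glo addition; signal suppression marked inhibition of damage-induced ELG1 function.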
Potency means the concentration at half of the fitted maximal effect.

Compound | Potency
CSc1ccccc1NC(=O)CN(C)CC(=O)c1c(C)[nH]c2ccccc12 | inactive
O=C(Nc1cccc2nsnc12)c1ccc(-c2ccc(Br)cc2)o1 | inconclusive: 29.1 µM [activator, single point]
Cc1noc(/C=C/N(C)C)c1S(=O)(=O)N1CCCC(C(=O)NC2CCCCC2C)C1 (stereo not drawn) | inactive
CCN1/C(=C\C=C2\C(=O)N(C)C(=S)N2C)Sc2ccccc21 | inconclusive: 7.3 µM [activator, partial curve, poor fit]
CCC(COC(=O)Nc1cccc(C)c1)NC(=O)OCC(C)C (stereo not drawn) | inactive
O=C(c1ccc(COc2ccccc2[N+](=O)[O-])o1)N1CCCCC1 | inconclusive: 25.9 µM [activator, single point]
COc1ccc(/C=C2\CCCC3C2=NN(C(=O)CSc2n[nH]c(N)n2)C3c2ccc(OC)cc2)cc1 (stereo not drawn) | inactive
COc1ccc(C(=O)Nc2ccc(N3CCN(C(=O)c4cccs4)CC3)cc2)cc1Br | active: 13 µM
CCOC(=O)c1c(NC(=S)Nc2ccc(Cl)cc2)sc(C)c1C | inconclusive: 25.9 µM [activator, single point]
N#Cc1c(N)n(-c2cccc(C(=O)O)c2)c2nc3ccccc3nc12 | inactive
O=C(CSc1nnc(-c2ccccc2F)o1)Nc1ccc(N2CCOCC2)cc1 | inconclusive: 8.2 µM [activator, partial curve]
CC(C)=N/N=C1/NC(=O)C(CC(=O)Nc2cc(Cl)ccc2C)S1 (stereo not drawn) | inactive
CCc1nnc(NC(=O)CN2CCN(S(C)(=O)=O)CC2)s1 | inactive
O=C(CSc1cccs1)Nc1ccc(Cl)cc1 | inconclusive: 14.6 µM [activator, partial curve]
CCN(CC)CCn1c2ccc(F)cc2c2nc(C)sc21 | inactive
Cc1ccc(-c2nc3sc(C(N)=O)c(N)c3c3c2CCCC3)cc1 | inconclusive: 29.1 µM [inhibitor, single point]
CCC(=O)NC(c1ccc(N(C)C)cc1)c1c(O)ccc2ccccc12 (stereo not drawn) | inconclusive: 18.3 µM [inhibitor, partial curve, poor fit]
CCNC(=O)CSc1nc2cc([N+](=O)[O-])ccc2n1-c1cccc(C(F)(F)F)c1 | inconclusive: 25.9 µM [inhibitor, partial curve, poor fit]
O=C1C2C3CCC(CC3)C2C(=O)N1c1ccccc1 (stereo not drawn) | inactive
O=Cc1ccc(OCC(=O)Nc2ccccc2C(F)(F)F)cc1 | inconclusive: 18.3 µM [activator, single point]
CC(=O)c1cc(F)c(N2CCOCC2)cc1C | inactive
C[C@]12c3[nH]c4cc(-c5ccco5)ccc4c3CCN1C(=O)[C@@H](CC(=O)NCc1ccco1)C[C@@H]2C(=O)N1CCCCC1 | inconclusive: 20.6 µM [inhibitor, partial curve]

Compound | Potency
COc1ccccc1N1Cc2ccc(OC)c(OC)c2C1=O | inconclusive: 23.1 µM [activator, single point]
CC(C(=O)Nc1ccc([N+](=O)[O-])cc1)N1CCN(C/C=C/c2ccccc2)CC1 (stereo not drawn) | inconclusive: 29.1 µM [inhibitor, partial curve, poor fit]
COc1cc(NC(=O)c2cc(Cl)ccc2Cl)ccc1-c1cc2ccccc2oc1=O | inconclusive: 7.31 µM [inhibitor, partial curve]
CCOc1ccc(NC(=S)N(CCN2CCOCC2)Cc2cc3cc4c(cc3[nH]c2=O)OCCO4)cc1 | inconclusive: 32.6 µM [inhibitor, partial curve, poor fit]
N[C@@H](Cc1ccc(O)cc1)C(=O)Nc1ccc2ccccc2c1 | inconclusive: 20.6 µM [activator, partial curve]
CC(C)CC1NC(=O)N(CC(=O)Nc2ccc(-c3ccccc3)cc2)C1=O (stereo not drawn) | inconclusive: 16.4 µM [activator, partial curve, poor fit]
CC(NCc1ccc(S(N)(=O)=O)cc1)C(=O)Nc1ccc([N+](=O)[O-])cc1Cl (stereo not drawn) | active: 23.1 µM
CC(C)CNC(=O)/C=C/C=C/c1ccc2c(c1)OCO2 | inconclusive: 18.3 µM [activator, single point]
COc1ccccc1OCCN(C#N)c1nc(N(C)C)nc(N(C)C)n1 | inconclusive: 29.1 µM [inhibitor, single point]
O=C(NCc1ccco1)/C(=C\c1ccco1)NC(=O)c1ccco1 | inconclusive: 18.3 µM [activator, partial curve, poor fit]
N/C(=N\NC(=O)c1ccccc1Cl)c1cc2ccccc2oc1=O | inconclusive: 29.1 µM [activator, single point]
CCOCCCn1c(SC(C(=O)Nc2cc(C)ccc2C)c2ccccc2)nnc1-c1ccc(Cl)cc1 (stereo not drawn) | inconclusive: 32.6 µM [inhibitor, partial curve, poor fit]
Nc1nc(Cl)nc2ncn(Cc3ccccc3)c12 | inactive
Cc1nn(C)cc1CN(C)C(=O)CCc1nnc(CCC2CCCCC2)o1 | inconclusive: 29.1 µM [activator, single point]
Cc1ccc(S(=O)(=O)N2CCC(NC(=O)c3ccccc3)CC2)cc1 | inconclusive: 29.1 µM [activator, single point]
O=C(CCCN1C(=O)/C(=C\c2cccs2)SC1=S)Nc1ccc(O)cc1C(=O)O | inconclusive: 23.1 µM [activator, partial curve, poor fit]
Cc1ccc2[nH]c3c(NCCN4CCOCC4)ncnc3c2c1 | inconclusive: 20.6 µM [activator, single point]
CS(=O)(=O)c1ccc2nc(NC(=O)c3ccccc3Br)sc2c1 | inconclusive: 20.6 µM [activator, partial curve]
CCNC(=O)COc1ccc(OCc2ccccc2)cc1 | inconclusive: 23.1 µM [activator, single point]
CCn1c2ccccc2c2cc(NC(=O)CSc3nnc(-c4cccc(OC)c4)n3N)ccc21 | inconclusive: 20.6 µM [inhibitor, single point]
CN(c1ccc(OCC(=O)OCC(=O)Nc2ccccc2)cc1)S(=O)(=O)c1ccc(F)cc1 | inactive

In a second layout: results already given
CC(C)CC1NC(=O)N(CC(=O)Nc2ccc(-c3ccccc3)cc2)C1=O (stereo not drawn)
  Potency: inconclusive: 16.4 µM [activator, partial curve, poor fit]
CC(NCc1ccc(S(N)(=O)=O)cc1)C(=O)Nc1ccc([N+](=O)[O-])cc1Cl (stereo not drawn)
  Potency: active: 23.1 µM

Copied from the list:
Potency with `N/C(=N\NC(=O)c1ccccc1Cl)c1cc2ccccc2oc1=O` is entered as inconclusive: 29.1 µM [activator, single point]
Potency with `CN(c1ccc(OCC(=O)OCC(=O)Nc2ccccc2)cc1)S(=O)(=O)c1ccc(F)cc1` is entered as inactive
